# In patent US20220348885A1, “BIOLOGICALLY RELEVANT IN VITRO SCREENING OF HUMAN NEURONS” (The Board of Trustees of the Leland Stanford Junior …, priority 2016, published 2022):
# At least one compound was matched to its structure with a doubt left.
# Assays:
# [1] = system: neural co-cultures consisting of primary human glial cells and a mixture of glutamatergic excitatory iN cells and GABAergic inhibitory iN cells; test: Bicuculline-induced seizure-like network activity on MEA and co-application of antiepileptic drugs (Example 7); format: cell-based; settings: 1 μM, 24 days after plating
# Experimental: Generation of human neural co-cultures and MEA recording settings and thresholds were as described under Example 6. […] Co-application of AEDs was performed in 3 different doses and each condition was tested in 6 technical replicates.
# neural co-cultures = test: MEA response of neural co-cultures to bicuculline at different time points of network maturation (FIG. 12B); format: cell-based, human
compound,measurement,setting,value
CN1CCc2cc3c(cc2[C@H]1[C@@H]1OC(=O)c2c1ccc1c2OCO1)OCO3 [bicuculline],induced network activity pattern,[1],induces ictal-like discharges
same,synchrony,neural co-cultures; 18 days post plating (DPP),significant increase in synchrony
same,synchrony,neural co-cultures; DPP 30,could not further be increased
